Source: PubChem BioAssay (EPA / NIEHS)
This list was built around the results that the source calls inconclusive (neither active nor inactive); the mix of calls is not that of the screen. A potency beside an inconclusive call is a rough fit, not a confirmed value. Active and inactive are the calls of the source. How the source made its calls: active means hit-call score of the fitted dose curve at least 0.9, where 1 is the maximum; inconclusive means response in the unintended direction; inactive means score below 0.9.

Assay: IUF_NPC2-5_cytotoxicity_72hr: Cytotoxicity Assessment at 72 hours in the Leibniz Research Institute for Environmental Medicine (IUF) Neural Progenitor Cell Migration and Differentiation Assay for Cytotoxicity (NPC2-5) (AID 2284306);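 further: LDH release into supernatant measured by resorufin fluorescence marking membrane damage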
Procedure, shortened: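 Human fetal primary neural progenitor spheres (0.3 mm) plated on poly-D-lysine/laminin in N2 differentiation medium, exposed from day 0 at 37C. LDH-dependent resazurin-to-resorufin fluorescence in supernatant at 72 h; 7 concentrations, DMSO at most 0.1%.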

Row | Compound | AC50 | outcome
1 | C=C(C)CN(CC)c1c([N+](=O)[O-])cc(C(F)(F)F)cc1[N+](=O)[O-] | inconclusive: 0.0378 µM | 
2 | O=C(Nc1ccccc1-c1ccc(Cl)cc1)c1cccnc1Cl |  | inactive
3 | CCCCC(CC)COP(=O)(Oc1ccccc1)Oc1ccccc1 (stereo unspecified) |  | inactive
4 | COP(=S)(OC)Oc1nc(Cl)c(Cl)cc1Cl | inconclusive: 10 µM | 
5 | CCOP(=S)(OCC)SCSC(C)(C)C |  | inactive
6 | CCCCOCCOP(=O)(OCCOCCCC)OCCOCCCC | inconclusive: 17.4 µM | 
7 | CCC[CH2][Sn]([Cl])([CH2]CCC)[CH2]CCC | active: 0.31 µM | 

3 structures already listed, sorted by SMILES length, rising:
Row | Compound | AC50 | outcome
4 | COP(=S)(OC)Oc1nc(Cl)c(Cl)cc1Cl | inconclusive: 10 µM | 
7 | CCC[CH2][Sn]([Cl])([CH2]CCC)[CH2]CCC | active: 0.31 µM | 
2 | O=C(Nc1ccccc1-c1ccc(Cl)cc1)c1cccnc1Cl |  | inactive

Assay: VALA_TUBHUV_Agonist_CellCount: Viability Assessment in the VALA Sciences human Umbilical Vein Endothelial Tubule Formation (TUBHUV) Agonism Assay (AID 2284309)
Procedure, shortened: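 HUVEC co-cultured 1:3 with HDF for 3 days in 10 ng/ml VEGF, then compounds added in VEGF medium for a further 3 days (72 h). Nuclear-stain/CD31 imaging cell count. Positive-direction fit versus 0.1% DMSO vehicle.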

Row | Compound | AC50 | outcome
8 | CO[C@@H]1[C@H](OC(=O)NC(=O)CCl)CC[C@]2(CO2)[C@H]1[C@@]1(C)O[C@@H]1CC=C(C)C | inconclusive: 1.92 µM | 
9 | ClCC(Cl)CCl | inconclusive: 9.92 µM | 
10 | Oc1cc(Cl)ccc1Oc1ccc(Cl)cc1Cl |  | inactive
11 | N#Cc1nn(-c2c(Cl)cc(C(F)(F)F)cc2Cl)c(N)c1S(=O)C(F)(F)F (stereo unspecified) | inconclusive: 7.62 µM | 
